# Measured values published in PubChem BioAssay AID588590 (National Center for Advancing Translational Sciences (NCATS), 2011).
# Protein sequences, listed by entry. Tags and fused reporters are not part of them. Lines headed by an entry give the natural chain unless they say otherwise; changes in a name come on top.
# UniProt Q9UNA4: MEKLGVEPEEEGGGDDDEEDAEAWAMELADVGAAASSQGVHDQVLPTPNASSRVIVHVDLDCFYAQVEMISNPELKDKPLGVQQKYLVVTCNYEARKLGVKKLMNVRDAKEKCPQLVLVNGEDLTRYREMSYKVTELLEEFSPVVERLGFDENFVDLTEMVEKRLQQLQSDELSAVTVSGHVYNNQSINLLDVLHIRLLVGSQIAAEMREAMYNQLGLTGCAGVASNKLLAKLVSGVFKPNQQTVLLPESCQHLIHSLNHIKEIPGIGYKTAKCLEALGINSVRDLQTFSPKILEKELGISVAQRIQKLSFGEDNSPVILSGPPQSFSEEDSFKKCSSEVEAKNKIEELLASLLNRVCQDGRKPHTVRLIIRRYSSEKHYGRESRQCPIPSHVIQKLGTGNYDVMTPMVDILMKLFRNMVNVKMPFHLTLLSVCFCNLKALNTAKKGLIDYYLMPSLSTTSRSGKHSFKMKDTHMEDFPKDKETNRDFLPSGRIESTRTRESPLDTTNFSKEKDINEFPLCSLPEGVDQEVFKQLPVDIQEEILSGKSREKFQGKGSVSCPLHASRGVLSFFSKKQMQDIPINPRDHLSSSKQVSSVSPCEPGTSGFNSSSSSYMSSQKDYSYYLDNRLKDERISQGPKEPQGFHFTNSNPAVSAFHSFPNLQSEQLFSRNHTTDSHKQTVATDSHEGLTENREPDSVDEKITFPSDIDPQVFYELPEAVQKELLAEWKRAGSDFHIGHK
# Among all 390,000 compounds or so, about 4,000 (1%) were called active. Inconclusive means that the source gave no clear call. Such entries were picked first, then a sample of the others. The call rests on the fitted dose curve; in most records, active means well fitted inhibition curve with a large enough effect; inconclusive means small, poorly fitted or top-dose-only effect, or another doubt; inactive means no such curve, though single readings can be large or run the other way. Potencies beside an inconclusive call are fits to weak or partial responses and may not hold up.
# Target: DNA polymerase iota (Homo sapiens) (UniProt Q9UNA4)
# Assay: qHTS for Inhibitors of Polymerase Iota
# Details: Pol iota fluorescent replication assay, 10 min; series mostly up to 115 µM; activity, negative = inhibition: at the top concentration
# Outline: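 Fluorescent replication assay read twice, at 0 min and 10 min after adding 50 nM (final) substrate. Enzyme (10 nM) and compounds were first incubated 15 min at room temperature; enzyme-free buffer wells were negative controls.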
# Potency means the concentration at half of the fitted maximal effect.
SMILES,Potency,"activity, negative = inhibition"
Nc1nccc(SCc2ccc(Cl)cc2Cl)n1,"inconclusive: 89.1 µM [inhibitor, single point]",–
NC(=S)N/N=C/c1coc2ccc(Br)cc2c1=O,–,inactive: 36.6%
CC(=O)c1ccc(NC(=O)CN2CCCCCC2)cc1,–,inactive: 14.5%
O=C1CC(NNC(=O)c2ccc(Br)cc2)C(=O)N1 (configuration not stated),–,inactive: 57.4%
N#C/C(=C(/O)c1ccc(-c2cccc([N+](=O)[O-])c2)o1)c1nc2ccccc2s1,active: 50.1 µM,–
Cc1cccc(N2NC(=O)/C(=C/c3ccc(-c4ccc(Cl)c(C(=O)O)c4)o3)C2=O)c1,active: 3.55 µM,–
COC(=O)[C@H]1[C@H]2C[C@@H]3c4[nH]c5cc(OC)ccc5c4CCN3C[C@H]2C[C@@H](OC(=O)c2cc(OC)c(OC)c(OC)c2)[C@@H]1OC,"inconclusive: 10 µM [inhibitor, full curve]",–
COc1ccccc1CCNc1ncnc2nc[nH]c12,"inconclusive: 79.4 µM [inhibitor, partial curve, poor fit]",–
Cc1cc(/C=N/NC(=O)C(O)(c2ccccc2)c2ccccc2)c(C)n1-c1ccc(C(=O)O)cc1,"inconclusive: 56.2 µM [inhibitor, partial curve, poor fit]",–
COc1ccccc1C(=O)NC1(C(F)(F)F)NC(=O)N(CCc2ccccc2)C1=O (configuration not stated),active: 79.4 µM,–
CCOCCCNC(=O)C(c1ccc(C)cc1)N(Cc1ccc2c(c1)OCO2)C(=O)c1ccccc1O (configuration not stated),–,inactive: 19.4%
CCC(C)(C)n1nnnc1C(c1ccc(C)cc1)N1CCC(C)CC1 (configuration not stated),"inconclusive: 25.1 µM [inhibitor, partial curve, poor fit]",–
CCCCC1=CC2=C(c3ccco3)C(=O)C(C)(OC(=O)c3ccc(OC)cc3)C(=O)C2=CN1Cc1ccc2c(c1)OCO2 (configuration not stated),"inconclusive: 12.6 µM [inhibitor, full curve, poor fit]",–
CCOc1ccc(CCNC(=O)c2cc3cc4ccc(OC)cc4nc3s2)cc1OCC,–,inactive: 23.7%
O=C(CSc1c2c(nc3ccc(Cl)cc13)CCCC2)N1CCCCC1,–,inactive: -11.8%
CCn1cc(S(=O)(=O)c2ccccc2)c(=O)c2cc(F)c(N3CCCCCC3)cc21,–,inactive: 1.13%
Cc1ccc(NC(=O)Cc2nnc(SCC(=O)c3ccc(Br)cc3)n2C)cc1,"inconclusive: 79.4 µM [inhibitor, partial curve, poor fit]",–
CC(=O)c1cccc(NC(=O)c2ccc3c(c2)CCN3S(=O)(=O)c2ccccc2)c1,"inconclusive: 70.8 µM [inhibitor, partial curve, poor fit]",–
COc1ccc(-c2nc3c(C#N)c[nH]n3c2NC2CCCCC2)cc1,"inconclusive: 79.4 µM [inhibitor, single point]",–
Cc1ccc(-c2cc(-c3ccccc3)nc(Cl)n2)cc1,"inconclusive: 89.1 µM [inhibitor, partial curve, poor fit]",–
CCC12CN3CC(C)(CN(C1)C3c1c(C)[nH]c3ccccc13)C2=O (configuration not stated),"inconclusive: 89.1 µM [inhibitor, single point]",–
CCOc1ccc(C2C(C(=O)Nc3ccc(C)cc3C)=C(C)Nc3c(C(=O)Nc4ccc(C)cc4)cnn32)cc1OC (configuration not stated),–,inactive: -3.01%
COc1ccc(CC(=O)Nc2ccc(C(N)=O)cc2)cc1,"inconclusive: 100 µM [inhibitor, single point]",–

# A second format for part of the listing above.
SMILES	Potency	activity, negative = inhibition
CCn1cc(S(=O)(=O)c2ccccc2)c(=O)c2cc(F)c(N3CCCCCC3)cc21	–	inactive: 1.13%
Cc1ccc(NC(=O)Cc2nnc(SCC(=O)c3ccc(Br)cc3)n2C)cc1	inconclusive: 79.4 µM [inhibitor, partial curve, poor fit]	–
CC(=O)c1cccc(NC(=O)c2ccc3c(c2)CCN3S(=O)(=O)c2ccccc2)c1	inconclusive: 70.8 µM [inhibitor, partial curve, poor fit]	–

# Next entries follow:

SMILES,Potency,"activity, negative = inhibition"
CCCCCCCCCOC(=O)CNc1nc(C#N)nc(NCC(=O)OCCCCCCCCC)n1,–,inactive: 2.62%
COc1ccc(C(=O)Oc2c(Sc3ccc(C)cc3)c(C)nn2C(C)(C)C)c(OC)c1,"inconclusive: 79.4 µM [inhibitor, partial curve]",–
CC(O)CNc1nc(Cl)c(C#N)s1 (configuration not stated),–,inactive: -10.4%
O=C(CN1CCN(Cc2ccc(Cl)cc2)CC1)N/N=C/c1c[nH]c2ccccc12,"inconclusive: 79.4 µM [inhibitor, partial curve]",–
C=CCOC(=O)/C=C/C(=O)NC(N)=O,"inconclusive: 14.1 µM [inhibitor, partial curve]",–
COc1ccc(NC(=O)C2CCN(S(=O)(=O)c3ccc4c(c3)NC(=O)C(C)S4)CC2)cc1 (configuration not stated),–,inactive: 25.2%
COc1ccccc1Cn1c(CNS(=O)(=O)c2c(C)cc(C)cc2C)nc2cccnc21,–,inactive: -9.66%
COCCNC(=O)Nc1ccc2nc(C)sc2c1,"inconclusive: 39.8 µM [inhibitor, single point]",–
CCOC(=O)C1CCCN(C(=O)C2CCN(S(=O)(=O)c3ccc(Cl)c(C(F)(F)F)c3)CC2)C1 (configuration not stated),"inconclusive: 89.1 µM [inhibitor, partial curve, poor fit]",–
O=C1SC(SCc2ccccc2Cl)=N/C1=C\c1ccc(C(=O)O)cc1,"inconclusive: 20 µM [inhibitor, full curve]",–
CCOCCn1ccc2c(OCC(=O)Nc3cc(C(F)(F)F)ccc3Cl)cccc2c1=O,–,inactive: 29.7%
CCOc1cc(CNCc2ccccn2)ccc1OCC(=O)NC1CCCCC1,"inconclusive: 25.1 µM [inhibitor, partial curve, poor fit]",–
Cc1cc[n+](-c2nc([O-])sc2/C=N/Nc2ccc([N+](=O)[O-])cc2)cc1,"inconclusive: 79.4 µM [inhibitor, partial curve, poor fit]",–
COc1ccc(NC(=O)CCS(=O)(=O)c2cc(Br)cc3c2N(C(C)=O)CC3)c(OC)c1,"inconclusive: 39.8 µM [inhibitor, full curve, poor fit]",–
CCOc1ccccc1N1CCN(CC(=O)N(C2CCCC2)C2CCS(=O)(=O)C2)CC1 (configuration not stated),–,inactive: -16.7%
Nc1cc2nsnc2cc1Br,active: 3.55 µM,–
CN(C(=O)CSc1nc2ccc(NC(=O)c3ccc(F)cc3)cc2s1)c1ccccc1,–,inactive: 21.7%
O=C1CSCC(=O)N1c1ncc(C(F)(F)F)cc1Cl,"inconclusive: 35.5 µM [inhibitor, partial curve]",–
N/C(=N\OC(=O)c1ccc(Cl)cc1Cl)c1ccncc1,"inconclusive: 20 µM [inhibitor, partial curve, poor fit]",–
COc1ccc(N=C2NC(=O)/C(=C\c3ccco3)S2)cc1,active: 39.8 µM,–
O=C(NCC(=O)N(Cc1ccccc1)C(C(=O)NC1CCCC1)c1cccnc1)c1ccco1 (configuration not stated),"inconclusive: 14.1 µM [inhibitor, partial curve, poor fit]",–
COc1ccc(S(=O)(=O)Nc2ccc(O)c(Sc3nc4ccccc4s3)c2)cc1,"inconclusive: 79.4 µM [inhibitor, single point]",–
O=C(O)c1cccc(NC(=O)c2cn(-c3ccccc3)nc2-c2cc3ccccc3o2)c1,"inconclusive: 56.2 µM [inhibitor, partial curve, poor fit]",–

SMILES,Potency,"activity, negative = inhibition"
O=C(Nc1nc(-c2cccs2)c(C(=O)C(F)(F)F)s1)c1ccccc1,active: 89.1 µM,–
CC1(C)Cc2nc(Cl)c(C(=O)O)cc2CO1,"inconclusive: 112 µM [inhibitor, partial curve, poor fit]",–
COc1ccc(NC(=O)/C=C/c2ccco2)cn1,–,inactive: 13.4%
Nc1c(O)ccc2c1C(=O)c1ccccc1C2=O,"inconclusive: 31.6 µM [inhibitor, full curve, poor fit]",–
CC1(C)CC(=O)c2cnn(-c3nc4ccccc4[nH]3)c2C1,"inconclusive: 112 µM [inhibitor, partial curve, poor fit]",–
Cc1c(C(=O)N(C)C)sc2c1c(=O)n(-c1ccc(Cl)c(Cl)c1)c(=O)n2Cc1ccc(F)cc1,–,inactive: 8.23%
CCOc1c(Br)cc(C2NS(=O)(=O)N=C3CCCCCN32)cc1OC (configuration not stated),"inconclusive: 25.1 µM [inhibitor, partial curve, poor fit]",–
Nc1sc2c(c1C(=O)NC1CCS(=O)(=O)C1)CCC2 (configuration not stated),"inconclusive: 35.5 µM [inhibitor, partial curve, poor fit]",–
CCOC(=O)C1=NNC2(c3ccccc3)C(=O)N(c3cccc(Br)c3)C(=O)C12 (configuration not stated),"inconclusive: 56.2 µM [inhibitor, partial curve, poor fit]",–
CC1Nc2ncnc(N3CCN(c4ccccn4)CC3)c2N(Cc2ccccc2)C1=O (configuration not stated),"inconclusive: 11.2 µM [inhibitor, partial curve, poor fit]",–
O=C(Cn1cc([N+](=O)[O-])cn1)Nc1ccccn1,"inconclusive: 89.1 µM [inhibitor, single point]",–
Cc1cc(C)c2oc(-c3ccc(NC(=O)c4cc(Br)ccc4Cl)cc3)nc2c1,"inconclusive: 89.1 µM [inhibitor, partial curve, poor fit]",–
Cc1cc(N2CCCCCC2)nc(-c2ccccc2O)n1,"inconclusive: 3.55 µM [inhibitor, partial curve, poor fit]",–
CCOC(=O)c1[nH]c2ccccc2c1NC(=O)c1ccc(OC)c(OC)c1,–,inactive: 2.01%
CCCS(=O)(=O)c1c(S(=O)(=O)CCC)c2cc(C(C)(C)C)ccn2c1C(=O)c1ccc(OC)c(OC)c1,–,inactive: -2.1%
COc1ccc(C2C=C(c3ccc(C)cc3)Nc3c(C(=O)Nc4ccccc4)cnn32)cc1 (configuration not stated),"inconclusive: 89.1 µM [inhibitor, single point]",–
O=c1c2ccccc2nc(/C=C/c2ccc([N+](=O)[O-])cc2)n1CCCO,–,inactive: -22.3%
CCOc1ccc(N2C(=O)c3cccnc3C2Nc2ccc(Cl)cc2)cc1 (configuration not stated),"inconclusive: 14.1 µM [inhibitor, partial curve, poor fit]",–
COc1ccc(Br)cc1CNC(=O)CCCn1c(=O)c2cccn2c2cccnc21,"inconclusive: 79.4 µM [inhibitor, single point]",–
Cc1cccc(N2CCN(C(=O)c3ccc4ncsc4c3)CC2)c1C,"inconclusive: 14.1 µM [inhibitor, single point]",–
Cc1cc(NC(=O)c2ccccc2)nc(C)n1,"inconclusive: 79.4 µM [inhibitor, partial curve]",–
